Laboratory results published in publication PMC8274477.
These are yes or no findings as the source states them, for the method shown. Some entries that bind do so weakly or less than the wild type.

Protein sequences, listed by entry. Tags and fused reporters are not part of them. Residues count along the entry.
UniProt Q9NYB9: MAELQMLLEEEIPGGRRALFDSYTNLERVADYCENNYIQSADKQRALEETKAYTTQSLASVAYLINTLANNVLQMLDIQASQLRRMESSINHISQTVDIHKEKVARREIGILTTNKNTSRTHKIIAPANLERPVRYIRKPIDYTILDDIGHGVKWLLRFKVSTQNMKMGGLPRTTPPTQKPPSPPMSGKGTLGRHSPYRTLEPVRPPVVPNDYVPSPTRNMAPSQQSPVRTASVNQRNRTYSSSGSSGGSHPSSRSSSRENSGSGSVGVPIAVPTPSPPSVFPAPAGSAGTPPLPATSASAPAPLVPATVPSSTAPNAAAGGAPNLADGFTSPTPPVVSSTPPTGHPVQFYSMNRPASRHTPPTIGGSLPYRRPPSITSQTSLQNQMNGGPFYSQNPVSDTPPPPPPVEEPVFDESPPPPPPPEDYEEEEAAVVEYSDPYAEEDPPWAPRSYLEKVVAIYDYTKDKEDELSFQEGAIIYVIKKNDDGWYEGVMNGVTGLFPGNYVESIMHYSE
UniProt O43670: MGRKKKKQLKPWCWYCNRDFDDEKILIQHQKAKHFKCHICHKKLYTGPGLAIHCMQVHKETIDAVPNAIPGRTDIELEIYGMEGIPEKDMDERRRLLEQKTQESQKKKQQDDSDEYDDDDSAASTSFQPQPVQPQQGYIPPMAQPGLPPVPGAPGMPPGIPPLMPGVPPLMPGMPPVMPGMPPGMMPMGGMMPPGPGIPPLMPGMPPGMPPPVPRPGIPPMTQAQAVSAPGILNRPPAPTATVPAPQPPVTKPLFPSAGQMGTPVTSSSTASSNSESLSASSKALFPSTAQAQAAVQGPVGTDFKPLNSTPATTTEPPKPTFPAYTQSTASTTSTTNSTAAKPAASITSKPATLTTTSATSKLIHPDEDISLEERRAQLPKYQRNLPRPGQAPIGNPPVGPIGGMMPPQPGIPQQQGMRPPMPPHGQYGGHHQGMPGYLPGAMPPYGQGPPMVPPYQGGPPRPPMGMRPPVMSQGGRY
UniProt Q8NA03: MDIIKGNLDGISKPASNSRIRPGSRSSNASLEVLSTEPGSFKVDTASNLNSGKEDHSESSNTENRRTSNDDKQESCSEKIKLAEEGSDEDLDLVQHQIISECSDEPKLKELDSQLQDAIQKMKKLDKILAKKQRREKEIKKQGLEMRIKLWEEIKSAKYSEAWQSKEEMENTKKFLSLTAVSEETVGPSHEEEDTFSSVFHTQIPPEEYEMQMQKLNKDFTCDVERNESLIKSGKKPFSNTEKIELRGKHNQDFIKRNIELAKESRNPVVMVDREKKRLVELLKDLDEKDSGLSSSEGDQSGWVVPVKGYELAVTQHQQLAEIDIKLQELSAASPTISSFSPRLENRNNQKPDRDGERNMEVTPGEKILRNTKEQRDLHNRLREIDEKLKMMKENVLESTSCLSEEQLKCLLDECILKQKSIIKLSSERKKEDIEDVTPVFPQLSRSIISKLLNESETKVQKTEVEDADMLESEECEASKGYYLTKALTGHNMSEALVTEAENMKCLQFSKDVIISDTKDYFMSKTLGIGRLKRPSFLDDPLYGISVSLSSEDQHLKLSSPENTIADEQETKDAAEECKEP
UniProt Q9NQH7, residues 32-507: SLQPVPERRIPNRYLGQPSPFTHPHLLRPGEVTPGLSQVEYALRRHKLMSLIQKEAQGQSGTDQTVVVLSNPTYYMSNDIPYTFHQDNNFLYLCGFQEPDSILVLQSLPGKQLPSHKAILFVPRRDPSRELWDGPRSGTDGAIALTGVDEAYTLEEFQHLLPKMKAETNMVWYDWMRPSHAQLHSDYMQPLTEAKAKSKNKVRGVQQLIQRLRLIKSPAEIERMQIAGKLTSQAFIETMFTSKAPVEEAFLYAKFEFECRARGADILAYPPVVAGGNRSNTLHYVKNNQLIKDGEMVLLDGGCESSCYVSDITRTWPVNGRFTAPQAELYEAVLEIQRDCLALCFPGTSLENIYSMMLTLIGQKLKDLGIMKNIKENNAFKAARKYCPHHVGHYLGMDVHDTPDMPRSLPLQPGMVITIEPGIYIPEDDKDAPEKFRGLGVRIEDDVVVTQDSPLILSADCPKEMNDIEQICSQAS
UniProt P11586: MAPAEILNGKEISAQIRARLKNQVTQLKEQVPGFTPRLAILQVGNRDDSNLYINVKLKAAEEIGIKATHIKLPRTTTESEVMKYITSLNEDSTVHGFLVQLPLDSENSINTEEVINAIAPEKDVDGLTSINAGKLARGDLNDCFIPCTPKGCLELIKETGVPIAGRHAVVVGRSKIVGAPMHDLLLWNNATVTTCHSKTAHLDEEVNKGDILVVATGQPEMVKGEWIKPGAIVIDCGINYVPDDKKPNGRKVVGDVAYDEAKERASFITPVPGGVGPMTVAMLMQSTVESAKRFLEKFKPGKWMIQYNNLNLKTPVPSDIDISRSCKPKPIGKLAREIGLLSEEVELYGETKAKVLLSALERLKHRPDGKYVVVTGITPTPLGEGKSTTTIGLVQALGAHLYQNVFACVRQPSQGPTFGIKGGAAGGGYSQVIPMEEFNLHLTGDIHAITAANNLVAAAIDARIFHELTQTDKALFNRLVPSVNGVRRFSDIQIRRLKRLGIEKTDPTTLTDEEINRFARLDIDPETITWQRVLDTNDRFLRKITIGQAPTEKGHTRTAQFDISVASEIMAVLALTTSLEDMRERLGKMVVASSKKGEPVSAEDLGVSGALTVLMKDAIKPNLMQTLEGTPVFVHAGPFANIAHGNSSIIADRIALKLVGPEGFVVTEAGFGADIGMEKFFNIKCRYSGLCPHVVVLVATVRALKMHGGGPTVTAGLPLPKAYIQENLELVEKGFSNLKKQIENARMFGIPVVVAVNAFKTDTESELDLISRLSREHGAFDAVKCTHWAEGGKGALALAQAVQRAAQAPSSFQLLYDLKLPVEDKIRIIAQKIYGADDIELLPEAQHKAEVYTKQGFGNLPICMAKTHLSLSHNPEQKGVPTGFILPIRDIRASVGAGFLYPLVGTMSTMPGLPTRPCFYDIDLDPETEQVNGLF
UniProt P35712: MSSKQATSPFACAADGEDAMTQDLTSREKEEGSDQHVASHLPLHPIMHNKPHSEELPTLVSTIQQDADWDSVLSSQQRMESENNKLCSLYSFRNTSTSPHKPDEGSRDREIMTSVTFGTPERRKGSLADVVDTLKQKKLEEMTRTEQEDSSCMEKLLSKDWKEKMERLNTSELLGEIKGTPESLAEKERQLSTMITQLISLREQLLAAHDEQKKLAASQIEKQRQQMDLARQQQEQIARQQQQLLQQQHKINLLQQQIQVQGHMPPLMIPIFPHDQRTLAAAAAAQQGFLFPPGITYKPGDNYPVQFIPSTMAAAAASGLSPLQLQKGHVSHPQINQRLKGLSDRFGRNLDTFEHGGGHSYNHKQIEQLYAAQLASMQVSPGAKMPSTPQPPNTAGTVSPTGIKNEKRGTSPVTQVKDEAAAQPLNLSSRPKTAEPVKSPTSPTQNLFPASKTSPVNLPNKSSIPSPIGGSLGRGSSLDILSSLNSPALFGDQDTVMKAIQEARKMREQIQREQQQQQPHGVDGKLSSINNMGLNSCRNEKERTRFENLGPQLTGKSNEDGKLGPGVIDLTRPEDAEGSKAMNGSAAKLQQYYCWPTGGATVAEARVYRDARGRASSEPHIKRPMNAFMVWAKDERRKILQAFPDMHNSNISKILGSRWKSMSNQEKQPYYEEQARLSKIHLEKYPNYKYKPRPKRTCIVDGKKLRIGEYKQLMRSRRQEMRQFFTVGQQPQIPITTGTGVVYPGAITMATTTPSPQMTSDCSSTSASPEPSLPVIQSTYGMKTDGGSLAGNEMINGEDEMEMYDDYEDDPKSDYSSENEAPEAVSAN

Key:
Test in all cases: peptide or protein array; HuProt human proteome microarray; 5 ug/5 ml biotin-labelled LUBAC or OTULIN in solution, 1 h at room temperature; Cy5-streptavidin, scanned at 635 nm; BSA as negative control; hits: Z-score >= 3 and I_(Mean_Ratio) >= 1.4; both purified
[1] = target: ABI2 (spot on the microarray) (human) (UniProt Q9NYB9)
MIF (human) = target: T1, MIF (human) (UniProt P14174)
T1 sequence: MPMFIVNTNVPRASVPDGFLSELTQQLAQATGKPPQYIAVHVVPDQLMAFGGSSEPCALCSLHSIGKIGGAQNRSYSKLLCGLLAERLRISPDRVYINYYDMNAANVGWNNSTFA

ZNF207 (human) = ZNF207 (human) (UniProt O43670)
MISP (human) = target: T2, MISP (human) (UniProt Q8IVT2)
T2 sequence: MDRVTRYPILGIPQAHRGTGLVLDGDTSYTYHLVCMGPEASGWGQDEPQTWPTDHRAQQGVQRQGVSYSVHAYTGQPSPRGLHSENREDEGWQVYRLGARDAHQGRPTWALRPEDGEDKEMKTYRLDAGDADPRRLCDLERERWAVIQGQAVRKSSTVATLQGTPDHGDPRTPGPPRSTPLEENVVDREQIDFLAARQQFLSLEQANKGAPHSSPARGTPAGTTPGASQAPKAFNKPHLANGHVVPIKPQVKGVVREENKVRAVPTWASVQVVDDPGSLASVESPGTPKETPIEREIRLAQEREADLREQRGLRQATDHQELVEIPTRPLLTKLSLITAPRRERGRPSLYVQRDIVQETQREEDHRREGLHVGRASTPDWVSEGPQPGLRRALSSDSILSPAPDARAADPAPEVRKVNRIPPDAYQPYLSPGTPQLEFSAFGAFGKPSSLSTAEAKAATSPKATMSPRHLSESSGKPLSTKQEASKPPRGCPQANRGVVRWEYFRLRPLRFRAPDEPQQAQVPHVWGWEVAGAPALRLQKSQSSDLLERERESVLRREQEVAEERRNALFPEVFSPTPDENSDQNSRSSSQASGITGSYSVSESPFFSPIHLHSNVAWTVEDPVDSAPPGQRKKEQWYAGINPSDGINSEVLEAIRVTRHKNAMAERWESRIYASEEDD

COL8A1 (human) = COL8A1 (human) (UniProt P27658)
FSIP1 (human) = FSIP1 (human) (UniProt Q8NA03)
XPNPEP3 (human) = XPNPEP3 (human) (UniProt Q9NQH7)
MTHFD1 (human) = MTHFD1 (human) (UniProt P11586)
NUDT6 (human) = target: T3, NUDT6 (human) (UniProt P53370)
T3 sequence: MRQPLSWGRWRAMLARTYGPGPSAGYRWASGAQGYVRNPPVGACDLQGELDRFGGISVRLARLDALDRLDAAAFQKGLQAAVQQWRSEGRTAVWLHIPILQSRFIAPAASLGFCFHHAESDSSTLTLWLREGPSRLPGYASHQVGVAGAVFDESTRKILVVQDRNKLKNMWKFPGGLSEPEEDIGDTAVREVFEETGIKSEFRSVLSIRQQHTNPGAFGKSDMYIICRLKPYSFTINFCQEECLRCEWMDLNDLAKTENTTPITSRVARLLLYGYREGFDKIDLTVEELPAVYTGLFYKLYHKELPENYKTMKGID

SOX6 (human) = SOX6 (human) (UniProt P35712)

Measured: binding

linear ubiquitin chain assembly complex (LUBAC), purified as HIS-tagged HOIP with the subunit HOIL-1, biotin-labelled (from UniProt Q96EP0 1-1072; Q9BYM8 1-510)
binds: all assays above
